# Measurements taken from PubChem BioAssay AID1259415 (National Center for Advancing Translational Sciences (NCATS), 2018).
# Several values for one entry are separate records, joined by “and”; a condition that tells them apart may be missing. Equal values may be shown once. Screen size: about 410,000 compounds; about 18,000 (4.4%) were called active. Inconclusive means that the source gave no clear call. Such entries were picked first, then a sample of the others. Rule as the data show it: active = activity change below about -60%; inconclusive = no clear call, values can overlap the other calls; inactive = above about -39%. The source holds several records for some structures; these can differ, active in one and inactive in another.
# Assay: qHTS Assay for inhibitors of the human cytomegalovirus (HCMV)
# Conditions: HFF cells, HCMV-luciferase reporter, 72 h; at 57.5 µM; hits give low values
# Summary of the method: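 Human foreskin fibroblasts infected with luciferase-reporter HCMV at MOI 1 PFU/cell, compounds at two doses. Luciferase measured 72 h post infection; normalized to buffer-only basal and Salinomycin (10uM) controls.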
# % is scaled to controls: 0 for no effect and ±100 for the full control effect.
row,Structure (SMILES),"activity change, negative = inhibition"
1,O=S(=O)(c1ccccc1F)N1CCC(Oc2ccc(-n3cnnn3)cc2)CC1,active: -68.8% and active: -61.7%
2,Cc1cc(CNC(=O)COc2ccccc2F)c2ccccc2n1,inconclusive: -43%
3,C[C@H]1CCC(=O)N([C@H](CC#N)Cc2ccccc2)CC1,inconclusive: -56.9%
4,CN(Cc1ccccc1)C(=O)CSc1nc2ccsc2c(=O)n1-c1ccc(F)cc1,inconclusive: -58.4%
5,Cn1nnnc1Sc1ncnc2scc(-c3ccccc3Cl)c12,active: -73.2%
6,CN(C(=O)CC1C(=O)NCCN1Cc1ccoc1)C1CCOCC1 (centres undefined),inconclusive: -52.1%
7,CCOc1ccc(CCNCc2c(C(=O)O)n(Cc3ccc(C)cc3)c3cc(OC)ccc23)cc1,inactive: -5.05%
8,CCn1c(=N)n(CC(O)c2cccs2)c2ccccc21 (centres undefined),inconclusive: -40.6%
9,CC1(C)C(=O)OC(c2cc(Br)ccc2O)C(C)(C)C1=O (centres undefined),inconclusive: -55%
10,Cc1ccc(Nc2nc(-c3sc(C)nc3C)cs2)cc1,inconclusive: -47.9%
11,CC(=O)c1sc2nsc(SCCN3CCCCC3)c2c1N,inconclusive: -51.9%
12,CCn1c(=O)c2cc(C(=O)N(C)c3ccc(OC)cc3OC)sc2c2ccccc21,inconclusive: -44.9%
13,COc1nnc(-c2ccc(C)c(S(=O)(=O)NC(C)(C)CO)c2)c2ccccc12,inactive: 37%
14,CCOc1ccc(NC(=O)c2cc(S(=O)(=O)N3CCCCC3)c[nH]2)cc1,active: -65.1%
15,Cc1ccc2cc3cc(C(=O)NCCCN4CCCC4)oc3nc2c1,inconclusive: -55.2%
16,COc1ccc(CNC(=O)C(c2ccco2)N(Cc2cccs2)C(=O)Cc2cccs2)cc1 (centres undefined),inconclusive: -48.3%
17,Cc1nc(-c2ccc(S(=O)(=O)N3CCCN(CCc4ccccc4)CC3)s2)cs1,inconclusive: -43.5%
18,COCC(C)NC(=O)C1CCN(S(=O)(=O)c2ccc3ccccc3c2)CC1 (centres undefined),inconclusive: -41.2%
19,COc1cc(/C=C2\CCC/C(=C\c3ccc(O)c(OC)c3)C2=O)ccc1O,active: -101%
20,CCN(C(=O)CN1C(=O)NC2(CCc3ccccc32)C1=O)C1CCCCC1 (centres undefined),active: -99.9%
21,Cc1cc(Cl)ccc1OCC(=O)Nc1nc(-c2cccs2)cs1,inactive: -16.7%
22,Cc1ccc2c(CN3CCCCC3CCO)cc(=O)oc2c1 (centres undefined),inconclusive: -46.7%
23,COc1ccccc1C(=O)Nc1ccnn1C1CCN(C(=O)c2ccoc2C)CC1,active: -62.8%

row,Structure (SMILES),"activity change, negative = inhibition"
1,O=C(CCl)N1CCCC1c1ccc2c(c1)OCCO2 (centres undefined),inconclusive: -55.1%
2,COc1cccc(N2C(=O)CSC23C(=O)N(Cc2ccccc2)c2ccccc23)c1 (centres undefined),inactive: -14%
3,CN(C)/C=C/C(=O)c1nn(-c2ccc(F)cc2)ccc1=O,inconclusive: -47.4%
4,Cn1cc([N+](=O)[O-])c(C(=O)Nc2ccn(C34CC5CC(CC(C5)C3)C4)n2)n1,active: -94.7%
5,CN(Cc1nccn1C)C(=O)C1CCC(=O)N(CCc2ccc(Cl)cc2)C1 (centres undefined),inactive: -22.3%
6,COCCCNc1nc2ccccc2nc1NS(=O)(=O)c1ccc(C)cc1C,inactive: -27.9%
7,COc1ccc2cc(-c3ccccc3)ncc2c1,inactive: 99.7%
8,CN1C(=O)c2ccccc2Sc2ccc(NC(=O)COc3ccccc3)cc21,active: -63.5%
9,COCCCN(C(=O)C1CCCCC1)c1c(N)n(Cc2ccccc2)c(=O)[nH]c1=O,inconclusive: -49.5%
10,CCOc1ccc(-c2nc(N)ncc2Oc2ccccc2Br)c(O)c1,inactive: -36.3%
11,Cc1cc(Cl)ccc1Oc1nccc(N(C)C)c1C#N,inconclusive: -57.8%
12,Cc1nn(CC(=O)NCC(C)c2ccccc2)c(=O)c2cc3occc3n12 (centres undefined),inconclusive: -48.2%
13,CC(CN1CCN(C)CC1)OC(=O)c1ccccc1 (centres undefined),inactive: 4.05%
14,Cn1c(Cn2c(=O)sc3ccccc32)nnc1SCC(=O)N1CCOCC1,inactive: 10.8%
15,CC(C)OCCCNC(=O)c1c(N)n(Cc2cccs2)c2nc3ccccc3nc12,active: -74.2%
16,CCOC(=O)c1cc(-c2ccc3c(c2)OCCO3)n[nH]1,inactive: 26.7%
17,COc1ccc(C2=NN(C(=O)c3cccs3)C(c3ccccc3O)C2)cc1 (centres undefined),active: -94.8%
18,N#CC(=C=[N-])c1nc2ccccc2nc1-[n+]1cccc(NC(=O)c2ccccc2)c1,inconclusive: -45.8%
19,O=C(Nc1ccc(Cl)cc1)N[C@H]1CC[C@H](CCn2cc(-c3ccccc3F)nn2)O[C@@H]1CO,inconclusive: -58.5%
20,CC(C)C(c1nnnn1Cc1cccs1)N1CCN(C(=O)c2ccco2)CC1 (centres undefined),inconclusive: -45.6%
21,CC(C)c1ccc(OCCCN2CCC(C(O)(c3ccccc3)c3ccccc3)CC2)cc1,active: -98.5%
22,O=C(CCc1nnc(CCCCc2ccccc2)o1)NCc1cc(F)ccc1F,inconclusive: -59.1%
23,CC(C)Oc1ccc(CNC(=O)c2ccc(NC(=O)N3CCSc4ncccc43)cc2)cc1,inconclusive: 0%

row,Structure (SMILES),"activity change, negative = inhibition"
1,O=[N+]([O-])c1cccc2ccc(/C=C/c3ccc(F)cc3)nc12,inactive: 1.72%
2,Cc1[nH]c2ccc(S(N)(=O)=O)cc2c1C,inactive: 28%
3,Cn1nc(-c2ccccc2)cc1NC(=O)[C@@H]1O[C@H](CO)[C@H](O)[C@H](O)[C@H]1O,inactive: -10.6%
4,COCCCC1CCN(C(=O)C2CCC(=O)N(CCCc3ccccc3)C2)CC1 (centres undefined),inconclusive: -44.7%
5,Nc1ccc(S(N)(=O)=O)cc1N,inconclusive: -42.3%
6,Cc1nc(Cl)c(C(=O)NCc2ccccc2)c(C)c1Cl,active: -69.9%
7,O=C(NCCc1ccccc1Cl)c1ccc2nc3ccccc3c(=O)n2c1,inconclusive: -44.3%
8,Cn1cc(C(=O)NCCO)c(=O)c2ccccc21,inactive: 0.567%
9,CCOC(=O)[C@H]1[C@H]2COc3ccc(C)cc3[C@@H]2N2C(=O)c3cc(OC)c(OC)cc3NC(=O)[C@@]12C,inactive: 4.9%
10,O=C(CCc1nnc(Cc2ccc(-c3ccccc3)cc2)o1)NCCc1cccnc1,inconclusive: -47.5%
11,O=c1c2ccccc2sn1-c1ccc(S(=O)(=O)N2CCCCC2)cc1,inactive: -20.5%
12,O=C(CNC(=O)c1cccs1)OCc1ccc(Cl)cc1,inconclusive: -52.3%
13,O=C(c1ccc(F)cc1F)N1CCN(c2ccccn2)CC1,inactive: -26.4%
14,O=C(NCCO)/C(=C\c1cccc([N+](=O)[O-])c1)NC(=O)c1cccs1,inactive: 58.9%
15,O=C(CCCCCN1C(=O)[C@@H]2Cc3ccccc3CN2C1=O)Nc1ccccc1Cl,inactive: -13.1%
16,CC1(C(=O)NS(=O)(=O)c2ccc(F)cc2F)CCN1C(=O)Cc1cc(F)ccc1F (centres undefined),inactive: -10.1%
17,Cc1ccc(S(=O)(=O)n2nccc2-c2c(-c3ccc(Cl)cc3)noc2C)cc1,active: -95.9%
18,Cc1nc(C(F)(F)F)ccc1C(=O)N1CCC1(C)C(=O)NS(=O)(=O)c1cccc(C#N)c1 (centres undefined),inactive: -12%
19,CCOC(=O)C(C)/C(C)=N/NC(N)=S (centres undefined),inconclusive: -49.2%
20,CCOc1ccccc1NC(=O)CSc1nc2c(c(=O)n(C)c(=O)n2C)n1C,inactive: 17.4%
21,COc1ccc(C(O)c2ncc(-c3ccccc3)[nH]2)cc1F (centres undefined),active: -101%
22,O=C(Nc1ccc(Cc2ccncc2)cc1)c1cc([N+](=O)[O-])ccc1N1CCOCC1,inconclusive: -42.4%
23,CC(C)CCC1(CCNC(=O)c2cccs2)CCOC(C)(C)C1 (centres undefined),inactive: 2.1%

# 5 compounds from above, sorted by count of non-hydrogen atoms, high to low.
row,Structure (SMILES),"activity change, negative = inhibition"
9,CCOC(=O)[C@H]1[C@H]2COc3ccc(C)cc3[C@@H]2N2C(=O)c3cc(OC)c(OC)cc3NC(=O)[C@@]12C,inactive: 4.9%
4,COCCCC1CCN(C(=O)C2CCC(=O)N(CCCc3ccccc3)C2)CC1 (centres undefined),inconclusive: -44.7%
17,Cc1ccc(S(=O)(=O)n2nccc2-c2c(-c3ccc(Cl)cc3)noc2C)cc1,active: -95.9%
21,COc1ccc(C(O)c2ncc(-c3ccccc3)[nH]2)cc1F (centres undefined),active: -101%
12,O=C(CNC(=O)c1cccs1)OCc1ccc(Cl)cc1,inconclusive: -52.3%

# The list continues.

row,Structure (SMILES),"activity change, negative = inhibition"
1,COc1ccc(NC(=S)N2CCN(C/C=C/c3ccccc3)CC2)c(OC)c1,inconclusive: -57.6%
2,COc1cccc(S(=O)(=O)Nc2ccc(C(=O)N3CCCCCC3)cc2)c1,inconclusive: -47.5%
3,O=C1CC(c2ccccc2)CC(O)=C1C=NCc1ccccc1Cl (centres undefined),active: -81.1%
4,Cc1ccc(S(=O)(=O)Nc2nc(-c3ccccc3)cs2)cc1,inconclusive: -56%
5,COc1ccc(-c2cc(=O)n(-c3nc4ccccc4[nH]3)[nH]2)cc1,active: -89.7%
6,CN(C)c1ccc2nc3ccc(=[N+](C)C)cc-3sc2c1,active: -104%
7,Cc1n[nH]c(C)c1S(=O)(=O)N1CCCC(C(=O)Nc2ccc(Cl)cc2)C1 (centres undefined),inconclusive: -46.6%
8,Cc1ccc(NC2=C(C(=O)c3ccccc3)N(C)S(=O)(=O)c3ccccc32)cc1,inconclusive: -45.7%
9,Cc1ccc(N2C(N)=C(C#N)C(c3cc(CN4CCOCC4)cs3)C3=C2CC(C)(C)CC3=O)cc1 (centres undefined),inconclusive: -58%
10,CCOC(=O)Nc1nnc(-c2ccccc2OC)s1,inconclusive: -54.6%
11,Cc1ccc(C)c(NC(=O)CN(C)C(=O)COc2ncnc3sccc23)c1,inconclusive: -48%
12,O=C(Nc1ccccc1Cl)OC1CCCCC1,inactive: -9.86%
13,CCC1(CC)Cc2ccccc2C(N)=C1C#N,inconclusive: -45.2%
14,COc1cc2c(cc1OC)CN(Cc1ccc(F)cc1)CC2,inactive: -20.3%
15,CN(C)c1ccc(CNC(=O)C2CCN(S(=O)(=O)c3ccc4c(ccn4C)c3)CC2)cc1,inactive: 1.62%
16,Cc1cc(NCc2ccccc2Cl)n2cnnc2n1,inconclusive: -48.8%
17,CCc1ccc(CN2CCCC(C(=O)c3sccc3C)C2)o1 (centres undefined),inactive: -23.2%
18,O=C(NC1CCCCC1)C1(S(=O)(=O)c2ccc(Cl)cc2)CC1,inconclusive: -41.7%
19,CC1(C)CC(NC(=O)C2CCN(S(=O)(=O)c3ccc(F)cc3)CC2)CC(C)(C)N1,inconclusive: -48.5%
20,COCCNC(=O)CSc1nc2cc3c(cc2c(=O)n1CCCC(=O)NCc1ccc(OC)cc1)OCO3,active: -61.6%
